# From ChEMBL document CHEMBL5674883, “The Heterochromatin Landscape in Migrating Cells and the Importance of H3K27me3 for Associated Transcriptome Alterations” (Cells, 2018)
# By UniProt entry, the sequences of proteins in these tests, tags left out.
# UniProt Q61188, whole entry: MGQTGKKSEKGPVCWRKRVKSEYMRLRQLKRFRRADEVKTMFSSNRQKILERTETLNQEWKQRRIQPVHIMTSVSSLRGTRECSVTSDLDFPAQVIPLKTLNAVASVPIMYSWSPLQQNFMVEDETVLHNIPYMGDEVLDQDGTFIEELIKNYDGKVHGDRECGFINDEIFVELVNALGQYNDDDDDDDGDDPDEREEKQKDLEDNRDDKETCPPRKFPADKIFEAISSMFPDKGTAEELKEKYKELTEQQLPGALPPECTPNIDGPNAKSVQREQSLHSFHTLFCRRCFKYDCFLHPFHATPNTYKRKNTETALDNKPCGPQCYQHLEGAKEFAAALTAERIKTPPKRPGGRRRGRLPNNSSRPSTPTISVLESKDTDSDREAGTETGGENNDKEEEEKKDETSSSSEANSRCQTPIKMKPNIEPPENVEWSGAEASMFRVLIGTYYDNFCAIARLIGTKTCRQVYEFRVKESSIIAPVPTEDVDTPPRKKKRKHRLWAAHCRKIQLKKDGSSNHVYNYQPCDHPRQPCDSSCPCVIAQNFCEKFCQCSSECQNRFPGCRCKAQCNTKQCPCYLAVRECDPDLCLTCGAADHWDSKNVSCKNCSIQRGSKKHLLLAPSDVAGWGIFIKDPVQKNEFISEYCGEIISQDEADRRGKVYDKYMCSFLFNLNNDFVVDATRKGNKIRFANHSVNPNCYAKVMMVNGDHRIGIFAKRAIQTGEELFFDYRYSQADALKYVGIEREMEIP
# The source gives many values for each of these; only a part stands here.
# How the values were obtained:
# Assay type in all cases: cell-based
# [1] = target: Histone-lysine N-methyltransferase EZH2 (Mus musculus) (UniProt Q61188); assay: Inhibition of EZH2 in mouse B16-F1 migrating cells assessed as fold change in H3K27me3-independent regulated Myo1e-mRNA expression at 3 uM measured by ChIP-seq analysis relative to control cells
# [2] = target: Histone-lysine N-methyltransferase EZH2 (Mus musculus) (UniProt Q61188); assay: Inhibition of EZH2 in mouse B16-F1 migrating cells assessed as fold change in H3K27me3-independent regulated Hmox1-mRNA expression at 3 uM measured by ChIP-seq analysis relative to control cells
# [3] = target: Histone-lysine N-methyltransferase EZH2 (Mus musculus) (UniProt Q61188); assay: Inhibition of EZH2 in mouse B16-F1 migrating cells assessed as fold change in H3K27me3-buffered regulated Smc6-mRNA expression at 3 uM measured by ChIP-seq analysis relative to control cells
# [4] = target: Histone-lysine N-methyltransferase EZH2 (Mus musculus) (UniProt Q61188); assay: Inhibition of EZH2 in mouse B16-F1 migrating cells assessed as fold change in H3K27me3-dependent regulated Sphk1-mRNA expression at 3 uM measured by ChIP-seq analysis relative to control cells
# [5] = target: Histone-lysine N-methyltransferase EZH2 (Mus musculus) (UniProt Q61188); assay: Inhibition of EZH2 in mouse B16-F1 migrating cells assessed as fold change in H3K27me3-buffered regulated Gfod1-mRNA expression at 3 uM measured by ChIP-seq analysis relative to control cells
# [6] = target: Histone-lysine N-methyltransferase EZH2 (Mus musculus) (UniProt Q61188); assay: Inhibition of EZH2 in mouse B16-F1 migrating cells assessed as fold change in H3K27me3-buffered regulated Frs3-mRNA expression at 3 uM measured by ChIP-seq analysis relative to control cells
# [7] = target: Histone-lysine N-methyltransferase EZH2 (Mus musculus) (UniProt Q61188); assay: Inhibition of EZH2 in mouse B16-F1 migrating cells assessed as fold change in H3K27me3-independent regulated Map2k3-mRNA expression at 3 uM measured by ChIP-seq analysis relative to control cells
# [8] = target: Histone-lysine N-methyltransferase EZH2 (Mus musculus) (UniProt Q61188); assay: Inhibition of EZH2 in mouse B16-F1 migrating cells assessed as fold change in H3K27me3-buffered regulated Hmgcs1-mRNA expression at 3 uM measured by ChIP-seq analysis relative to control cells
# [9] = target: Histone-lysine N-methyltransferase EZH2 (Mus musculus) (UniProt Q61188); assay: Inhibition of EZH2 in mouse B16-F1 migrating cells assessed as fold change in H3K27me3-buffered regulated Wdhd1-mRNA expression at 3 uM measured by ChIP-seq analysis relative to control cells
# [10] = target: Histone-lysine N-methyltransferase EZH2 (Mus musculus) (UniProt Q61188); assay: Inhibition of EZH2 in mouse B16-F1 migrating cells assessed as fold change in H3K27me3-independent regulated Loxl2-mRNA expression at 3 uM measured by ChIP-seq analysis relative to control cells
# [11] = target: Histone-lysine N-methyltransferase EZH2 (Mus musculus) (UniProt Q61188); assay: Inhibition of EZH2 in mouse B16-F1 migrating cells assessed as fold change in H3K27me3-buffered regulated Pgbd5-mRNA expression at 3 uM measured by ChIP-seq analysis relative to control cells
# [12] = target: T1, RNA polymerase II (Mus musculus) (UniProt P08775+Q8CFI7+P97760+A0A3Q4L2S8+Q80UW8+P61219+P62488+Q923G2+P60898+O08740+Q63871+P62876); assay: Inhibition of RNA polymerase II in mouse B16-F1 migrating cells assessed as fold change in Ascc3-RNA stability at 0.1 mM measured by ChIP-seq analysis relative to control cells
# [13] = target: T1, RNA polymerase II (Mus musculus); assay: Inhibition of RNA polymerase II in mouse B16-F1 migrating cells assessed as fold change in Syngr1-RNA stability at 0.1 mM measured by ChIP-seq analysis relative to control cells
# [14] = target: T1, RNA polymerase II (Mus musculus); assay: Inhibition of RNA polymerase II in mouse B16-F1 migrating cells assessed as fold change in Dph3-RNA stability at 0.1 mM measured by ChIP-seq analysis relative to control cells
# [15] = target: T1, RNA polymerase II (Mus musculus); assay: Inhibition of RNA polymerase II in mouse B16-F1 migrating cells assessed as fold change in Zfp946-RNA stability at 0.1 mM measured by ChIP-seq analysis relative to control cells
# [16] = target: T1, RNA polymerase II (Mus musculus); assay: Inhibition of RNA polymerase II in mouse B16-F1 migrating cells assessed as fold change in Eif3k-RNA stability at 0.1 mM measured by ChIP-seq analysis relative to control cells
# [17] = target: T1, RNA polymerase II (Mus musculus); assay: Inhibition of RNA polymerase II in mouse B16-F1 migrating cells assessed as fold change in Fam162a-RNA stability at 0.1 mM measured by ChIP-seq analysis relative to control cells
# [18] = target: T1, RNA polymerase II (Mus musculus); assay: Inhibition of RNA polymerase II in mouse B16-F1 migrating cells assessed as fold change in Ubl3-RNA stability at 0.1 mM measured by ChIP-seq analysis relative to control cells
# [19] = target: T1, RNA polymerase II (Mus musculus); assay: Inhibition of RNA polymerase II in mouse B16-F1 migrating cells assessed as fold change in Utp15-RNA stability at 0.1 mM measured by ChIP-seq analysis relative to control cells
# [20] = target: T1, RNA polymerase II (Mus musculus); assay: Inhibition of RNA polymerase II in mouse B16-F1 migrating cells assessed as fold change in Klhl21-RNA stability at 0.1 mM measured by ChIP-seq analysis relative to control cells
# [21] = target: T1, RNA polymerase II (Mus musculus); assay: Inhibition of RNA polymerase II in mouse B16-F1 migrating cells assessed as fold change in Ppip5k2-RNA stability at 0.1 mM measured by ChIP-seq analysis relative to control cells
# [22] = target: T1, RNA polymerase II (Mus musculus); assay: Inhibition of RNA polymerase II in mouse B16-F1 migrating cells assessed as fold change in Bad-RNA stability at 0.1 mM measured by ChIP-seq analysis relative to control cells
# [23] = target: T1, RNA polymerase II (Mus musculus); assay: Inhibition of RNA polymerase II in mouse B16-F1 migrating cells assessed as fold change in Fmnl2-RNA stability at 0.1 mM measured by ChIP-seq analysis relative to control cells
# [24] = target: T1, RNA polymerase II (Mus musculus); assay: Inhibition of RNA polymerase II in mouse B16-F1 migrating cells assessed as fold change in Abcb7-RNA stability at 0.1 mM measured by ChIP-seq analysis relative to control cells
# [25] = target: T1, RNA polymerase II (Mus musculus); assay: Inhibition of RNA polymerase II in mouse B16-F1 migrating cells assessed as fold change in Slmap-RNA stability at 0.1 mM measured by ChIP-seq analysis relative to control cells
# [26] = target: T1, RNA polymerase II (Mus musculus); assay: Inhibition of RNA polymerase II in mouse B16-F1 migrating cells assessed as fold change in Fam133b-RNA stability at 0.1 mM measured by ChIP-seq analysis relative to control cells
# [27] = target: T1, RNA polymerase II (Mus musculus); assay: Inhibition of RNA polymerase II in mouse B16-F1 migrating cells assessed as fold change in Rps6kb1-RNA stability at 0.1 mM measured by ChIP-seq analysis relative to control cells
# [28] = target: T1, RNA polymerase II (Mus musculus); assay: Inhibition of RNA polymerase II in mouse B16-F1 migrating cells assessed as fold change in Gpsm3-RNA stability at 0.1 mM measured by ChIP-seq analysis relative to control cells
# [29] = target: T1, RNA polymerase II (Mus musculus); assay: Inhibition of RNA polymerase II in mouse B16-F1 migrating cells assessed as fold change in Togaram1-RNA stability at 0.1 mM measured by ChIP-seq analysis relative to control cells
# [30] = target: T1, RNA polymerase II (Mus musculus); assay: Inhibition of RNA polymerase II in mouse B16-F1 migrating cells assessed as fold change in Map1lc3a-RNA stability at 0.1 mM measured by ChIP-seq analysis relative to control cells
smiles,measurement,setting,value
CCCc1cc(C)[nH]c(=O)c1CNC(=O)c1cc(-c2ccnc(N3CCN(C)CC3)c2)cc2c1cnn2C(C)C,log2FC,[1],0.5
same,log2FC,[2],0.71
same,log2FC,[3],-0.55
same,log2FC,[4],0.33
same,log2FC,[5],-0.52
same,log2FC,[6],-0.84
same,log2FC,[7],0.48
same,log2FC,[8],0.47
same,log2FC,[9],-0.41
same,log2FC,[10],0.65
same,log2FC,[11],0.7
OC[C@H]1O[C@@H](n2cnc3cc(Cl)c(Cl)cc32)[C@H](O)[C@@H]1O,log2FC,[12],-0.54
same,log2FC,[13],0.38
same,log2FC,[14],0.47
same,log2FC,[15],-1.13
same,log2FC,[16],0.4
same,log2FC,[17],0.91
same,log2FC,[18],-0.49
same,log2FC,[19],-0.61
same,log2FC,[20],-0.65
same,log2FC,[21],-0.46
same,log2FC,[22],0.5
same,log2FC,[23],-0.53
same,log2FC,[24],-0.39
same,log2FC,[25],-0.69
same,log2FC,[26],-0.5
same,log2FC,[27],-0.64
same,log2FC,[28],0.6
same,log2FC,[29],-0.69
same,log2FC,[30],0.63
